The other results are listed elsewhere or left out.
Tests used:
Test in all cases: glycan array binding signal (z-score within array); higher = stronger binding
Conditions in all cases: glycan notation: IUPAC condensed, linker removed
[1] = target: Fuc(a1-2)Gal(b1-4)GlcNAc(b1-3)Gal(b1-4)GlcNAc(b1-2)Man(a1-3)[Fuc(a1-2)Gal(b1-4)GlcNAc(b1-3)Gal(b1-4)GlcNAc(b1-2)Man(a1-6)]Man(b1-4)GlcNAc(b1-4)GlcNAc
Procedure, shortened: (§1)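 The binding signal is a Z-score computed within each array. Data were drawn from 3228 arrays in the Consortium for Functional Glycomics database, restricted to those with a known protein sequence. Scores were averaged over arrays of the same protein sequence at different concentrations or buffers, and over linkers, and negative values can be taken as non-binding.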

[2] = target: Fuc(a1-2)Gal(b1-4)GlcNAc(b1-3)Gal(b1-4)GlcNAc(b1-3)Gal(b1-4)GlcNAc
Procedure, shortened: as §1

[3] = target: Fuc(a1-2)Gal(b1-4)GlcNAc(b1-3)GalNAc
Procedure, shortened: as §1

[4] = target: Fuc(a1-2)Gal(b1-4)GlcNAc(b1-3)[Fuc(a1-2)Gal(b1-4)GlcNAc(b1-6)]GalNAc
Procedure, shortened: as §1

[5] = target: Fuc(a1-2)Gal(b1-4)GlcNAc(b1-3)[Fuc(a1-3)[Gal(b1-4)]GlcNAc(b1-6)]Gal(b1-4)Glc
Procedure, shortened: as §1

[6] = target: Fuc(a1-2)Gal(b1-4)GlcNAc(b1-6)GalNAc
Procedure, shortened: as §1

[7] = target: Fuc(a1-2)Gal(b1-4)GlcNAc6S
Procedure, shortened: as §1

[8] = target: Fuc(a1-2)Gal(b1-4)[Fuc(a1-3)]GlcNAc
Procedure, shortened: as §1

[9] = target: Fuc(a1-2)Gal(b1-4)[Fuc(a1-3)]GlcNAc(b1-2)Man(a1-3)[Fuc(a1-2)Gal(b1-4)[Fuc(a1-3)]GlcNAc(b1-2)Man(a1-6)]Man(b1-4)GlcNAc(b1-4)[Fuc(a1-6)]GlcNAc
Procedure, shortened: as §1

[10] = target: Fuc(a1-2)Gal(b1-4)[Fuc(a1-3)]GlcNAc(b1-2)[Fuc(a1-2)Gal(b1-4)[Fuc(a1-3)]GlcNAc(b1-4)]Man(a1-3)[Fuc(a1-2)Gal(b1-4)[Fuc(a1-3)]GlcNAc(b1-2)Man(a1-6)]Man(b1-4)GlcNAc(b1-4)GlcNAc
Procedure, shortened: as §1

[11] = target: Fuc(a1-2)Gal(b1-4)[Fuc(a1-3)]GlcNAc(b1-3)Gal(b1-4)[Fuc(a1-3)]GlcNAc
Procedure, shortened: as §1

[12] = target: Fuc(a1-2)Gal(b1-4)[Fuc(a1-3)]GlcNAc(b1-3)Gal(b1-4)[Fuc(a1-3)]GlcNAc(b1-3)Gal(b1-4)[Fuc(a1-3)]GlcNAc
Procedure, shortened: as §1

[13] = target: Fuc(a1-2)Gal(b1-4)[Fuc(a1-3)]GlcNAc(b1-3)GalNAc
Procedure, shortened: as §1

[14] = target: Fuc(a1-2)Gal(b1-4)[Fuc(a1-3)]GlcNAc(b1-3)[Neu5Ac(a2-6)Gal(b1-4)GlcNAc(b1-6)]Gal(b1-4)Glc
Procedure, shortened: as §1

[15] = target: Fuc(a1-2)Gal3S(b1-4)GlcNAc
Procedure, shortened: as §1

[16] = target: Fuc(a1-2)Gal6S(b1-3)GlcNAc
Procedure, shortened: as §1

[17] = target: Fuc(a1-2)Gal6S(b1-3)GlcNAc6S
Procedure, shortened: as §1

Fuc(a1-2)Gal6S(b1-4)Glc = target: Fuc(a1-2)Gal6S(b1-4)Glc
Procedure, shortened: as §1

[18] = target: Fuc(a1-2)Gal6S(b1-4)Glc6S
Procedure, shortened: as §1

Fuc(a1-2)[Gal(a1-3)]Gal = target: Fuc(a1-2)[Gal(a1-3)]Gal
Procedure, shortened: as §1

[19] = target: Fuc(a1-2)[Gal(a1-3)]Gal(b1-3)GalNAc
Procedure, shortened: as §1

[20] = target: Fuc(a1-2)[Gal(a1-3)]Gal(b1-3)GalNAc(b1-3)Gal(a1-4)Gal(b1-4)Glc
Procedure, shortened: as §1

[21] = target: Fuc(a1-2)[Gal(a1-3)]Gal(b1-3)GlcNAc
Procedure, shortened: as §1

[22] = target: Fuc(a1-2)[Gal(a1-3)]Gal(b1-3)GlcNAc(b1-2)Man(a1-3)[Fuc(a1-2)[Gal(a1-3)]Gal(b1-3)GlcNAc(b1-2)Man(a1-6)]Man(b1-4)GlcNAc(b1-4)GlcNAc
Procedure, shortened: as §1

[23] = target: Fuc(a1-2)[Gal(a1-3)]Gal(b1-3)GlcNAc(b1-2)Man(a1-3)[Fuc(a1-2)[Gal(a1-3)]Gal(b1-3)GlcNAc(b1-2)Man(a1-6)]Man(b1-4)GlcNAc(b1-4)[Fuc(a1-6)]GlcNAc
Procedure, shortened: as §1

[24] = target: Fuc(a1-2)[Gal(a1-3)]Gal(b1-3)GlcNAc(b1-3)GalNAc
Procedure, shortened: as §1

[25] = target: Fuc(a1-2)[Gal(a1-3)]Gal(b1-3)GlcNAc(b1-6)GalNAc
Procedure, shortened: as §1

[26] = target: Fuc(a1-2)[Gal(a1-3)]Gal(b1-4)Glc
Procedure, shortened: as §1

[27] = target: Fuc(a1-2)[Gal(a1-3)]Gal(b1-4)GlcNAc
Procedure, shortened: as §1

[28] = target: Fuc(a1-2)[Gal(a1-3)]Gal(b1-4)GlcNAc(b1-2)Man
Procedure, shortened: as §1

B1: RsaA-N-term (Caulobacter crescentus), P35828 (protein)
chain: MAYTTAQLVTAYTNANLGKAPDAATTLTLDAYATQTQTGGLSDAAALTNTLKLVNSTTAVAIQTYQFFTGVAPSAAGLDFLVDSTTNTNDLNDAYYSKFAQENRFINFSINLATGAGAGATAFAAAYTGVSYAQTVATAYDKIIGNAVATAAGVDVAAAVAFLSRQANIDYLTAFVRANTPFTAAADIDLAVKAALIGTILNAATVSGIGGYATATAAMINDLSDGALSTDNAAGVNLFTAYPSSGVSGSTLSLTTGTDTLTGTANNDTFVAGEVAGDGSGWSHPQFEKGG
Question: How did the “glycan array binding signal (z-score)” value [1] turn out when B1 was run?
Answer: 0.407

Question: And the “glycan array binding signal (z-score)” value [2]?
Answer: 1.12

Question: What about the “glycan array binding signal (z-score)” value [3] of the same binder?
Answer: -0.586

Question: And the “glycan array binding signal (z-score)” value [4]?
Answer: -0.459

Question: What about the “glycan array binding signal (z-score)” value [5] of the same binder?
Answer: -0.212

Question: And the “glycan array binding signal (z-score)” value [6]?
Answer: 0.406

Question: And the “glycan array binding signal (z-score)” value [7]?
Answer: 1.98

Question: What about the “glycan array binding signal (z-score)” value [8] of the same binder?
Answer: -0.091

Question: And the “glycan array binding signal (z-score)” value [9]?
Answer: 0.618

Question: And the “glycan array binding signal (z-score)” value [10]?
Answer: 2.4

Question: And the “glycan array binding signal (z-score)” value [11]?
Answer: -0.047

Question: What about the “glycan array binding signal (z-score)” value [12] of the same binder?
Answer: -1.26

Question: And the “glycan array binding signal (z-score)” value [13]?
Answer: -0.298

Question: And the “glycan array binding signal (z-score)” value [14]?
Answer: -0.218

Question: What about the “glycan array binding signal (z-score)” value [15] of the same binder?
Answer: -0.243

Question: What about the “glycan array binding signal (z-score)” value [16] of the same binder?
Answer: -1.23

Question: And the “glycan array binding signal (z-score)” value [17]?
Answer: 0.619

Question: And the “glycan array binding signal (z-score)” value (Fuc(a1-2)Gal6S(b1-4)Glc)?
Answer: -1.02

Question: What about the “glycan array binding signal (z-score)” value [18] of the same binder?
Answer: -0.09

Question: What about the “glycan array binding signal (z-score)” value (Fuc(a1-2)[Gal(a1-3)]Gal) of the same binder?
Answer: -0.627

Question: What about the “glycan array binding signal (z-score)” value [19] of the same binder?
Answer: -0.328

Question: What about the “glycan array binding signal (z-score)” value [20] of the same binder?
Answer: -0.219

Question: What about the “glycan array binding signal (z-score)” value [21] of the same binder?
Answer: -0.677

Question: What about the “glycan array binding signal (z-score)” value [22] of the same binder?
Answer: 0.3

Question: And the “glycan array binding signal (z-score)” value [23]?
Answer: -0.025

Question: What about the “glycan array binding signal (z-score)” value [24] of the same binder?
Answer: -1.3

Question: What about the “glycan array binding signal (z-score)” value [25] of the same binder?
Answer: -0.558

Question: And the “glycan array binding signal (z-score)” value [26]?
Answer: -0.356

Question: What about the “glycan array binding signal (z-score)” value [27] of the same binder?
Answer: 1.14

Question: And the “glycan array binding signal (z-score)” value [28]?
Answer: -0.159
